Test results from PMC10731091.
For at least one entry, the source does not settle the construct or the ends of the probe.

Target: glycated albumin (GA + glycated human serum albumin) (UniProt P02768)
Assay: LSPR (plasmonic wavelength shift)
Settings: GA 0.1-10 uM in flow, aptamer immobilised on Au, MCH/BSA blocked, shift saturates at about 1 uM, detection limit 0.1 uM; 5' amino C6; 3' thiol C6 SS; aptamer (5 uM) immobilised on Au-coated quartz, MCH and BSA blocking, GA in continuous flow; aptamer stock in Tris-EDTA-acetate buffer; assay buffer; single-stranded DNA

Question: Does TGCGGTTGTAGTACTCGTGGCCG [GA aptamer] bind?
Answer: binds
